Converted amounts (≈) assume the structure as drawn.
Tests used:
Experiment in all cases: Antibacterial activity, microplate assay
Format in all cases: cell-based
[1] = system: Staphylococcus aureus (ATCC 25923); conditions: ATCC25923, S. aureus
[2] = system: Escherichia coli (ATCC 25922); conditions: ATCC25922, E. coli
[3] = system: Pseudomonas aeruginosa (ATCC 17749); conditions: ATCC17749, P. aeruginosa

- MIC [1]: 0.097 µg/mL (≈ 0.293 µM)
- MIC [2]: 0.78 µg/mL (≈ 2.35 µM)
- MIC [3]: 0.78 µg/mL (≈ 2.35 µM)
Compound: O=C(O)c1cn(C2CC2)c2cc(N3CCNCC3)c(F)cc2c1=O [ciprofloxacin]
